Publication PMC5101352

Sequences of proteins named here, by UniProt entry; tags and fusion partners are left off.
UniProt P0ABA0: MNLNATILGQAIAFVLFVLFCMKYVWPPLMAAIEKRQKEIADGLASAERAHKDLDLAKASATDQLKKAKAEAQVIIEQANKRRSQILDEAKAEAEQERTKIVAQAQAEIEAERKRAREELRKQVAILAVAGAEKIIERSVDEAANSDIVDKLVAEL

Molecular target: C-terminally FLAG-tagged YbeY expressed from the chromosome (E. coli) (UniProt P0A898)
Experiment: affinity purification with mass spectrometry; C-terminally FLAG-tagged YbeY from the chromosome of E. coli MC4100; lysate on M2 anti-FLAG Sepharose beads, 4°C, 3 h; SDS-PAGE bands identified by MALDI-TOF; untagged strain as control

For “ATP synthase subunit B, endogenous (from UniProt P0ABA0 1-156)”, the binding was “binds”.

These are yes or no findings as the source states them, for the method shown. In cells and extracts the contact can be indirect. Here binding means that the protein was enriched with, or labelled near, the bait; the list need not be complete.
